Measured values from PMC3774380.

Chains of the proteins cited; added tags and fusions are not shown. Residues count along the entry.
UniProt P01275, 98-127: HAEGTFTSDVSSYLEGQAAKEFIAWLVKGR
UniProt P01275, 146-178: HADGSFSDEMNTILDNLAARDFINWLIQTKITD
UniProt P01282, 81-122: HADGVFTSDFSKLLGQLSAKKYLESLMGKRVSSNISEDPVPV
UniProt P09681, 52-93: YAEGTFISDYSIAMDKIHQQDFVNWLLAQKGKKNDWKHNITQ

Tests used:
Experiment in all cases: SPR
Conditions in all cases: all L-nucleotides; ribonucleotides at positions 5, 11, 14, 15, 25, 26, rest deoxy; 5' aminohexyl-40 kDa PEG; Selection buffer: 20 mM Tris pH 7.4, 150 mM NaCl, 5 mM KCl, 1 mM MgCl2, 1 mM CaCl2, 0.1% Tween 20, 0.1% CHAPS, 100 ug/ml HSA, 10 ug/ml yeast RNA, 37 C; synthetic backbone
[1] = molecular target: glucagon-like peptide-1 (GLP-1) (UniProt P01275)
[2] = molecular target: prepro-vasoactive intestinal peptide (prepro-VIP) (UniProt P01282)
[3] = molecular target: gastric-inhibitory peptide (GIP) (UniProt P09681)
[4] = molecular target: glucagon-like peptide-2 (GLP-2) (UniProt P01275)

Measured: binding result

GCGGGAAATGGGAGGGCTAGGTGGAAGGAATCTGAGCGC [NOX-G15]
no binding: all assays above

Negatives hold for the conditions tested. For some of these results: The exact form of at least one protein or probe is not confirmed.
